# Laboratory results reported in the supplement of paper PMC10331698.
# ± gives the standard deviation of the averaged measurements. Most values lie at the level of the controls, where differences are scatter.
# Tests used:
# Test in all cases: level (log10 ratio to DMSO vehicle control); higher = higher biomarker level / cell amount than vehicle control
# Perfluoroundecanoic acid = compound: O=C(O)C(F)(F)C(F)(F)C(F)(F)C(F)(F)C(F)(F)C(F)(F)C(F)(F)C(F)(F)C(F)(F)C(F)(F)F [Perfluoroundecanoic acid]; details: in DMSO
# Protocol: (§1)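 BioMAP Diversity Plus panel of 12 human primary cell co-culture systems (3C, 4H, LPS, SAg, BT, BF4T, BE3C, CASM3C, HDF3CGF, KF3CT, MyoF, Mphg). Compounds were added 1 h before stimulation and left for 24 h (MyoF 48 h; BT 72 h for soluble read-outs or 6 d for IgG). Biomarkers were read by ELISA, cytotoxicity by SRB, PBMC viability and proliferation by Alamar Blue. Each well value was divided by the mean of 8 DMSO control wells on the same plate and log10 transformed; duplicate blinded samples were tested at 4 concentrations.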
# [1] = compound: C=C(C)C(=O)OCC(F)(F)C(F)(F)C(F)(F)F [2,2,3,3,4,4,4-Heptafluorobutyl methacrylate]; details: 2200 nM; in DMSO
# Protocol: as §1
# [2] = compound: O=C(O)C(F)(F)OC(F)(F)C(F)(F)OC(F)(F)C(F)(F)C(F)(F)C(F)(F)F [Perfluoro-3,6-dioxadecanoic acid]; details: 2200 nM; in DMSO
# Protocol: as §1
# [3] = compound: O=P(O)(O)CCC(F)(F)C(F)(F)C(F)(F)C(F)(F)C(F)(F)C(F)(F)C(F)(F)C(F)(F)F [((Perfluorooctyl)ethyl)phosphonic acid]; details: 2200 nM; in DMSO
# Protocol: as §1
# [4] = compound: O=C(O)C(F)(F)C(F)(F)OC(F)(F)F [Perfluoro-3-methoxypropanoic acid]; details: 2200 nM; in DMSO
# Protocol: as §1
# Perfluorobutanoic acid = compound: O=C(O)C(F)(F)C(F)(F)C(F)(F)F [Perfluorobutanoic acid]; details: 2200 nM; in DMSO
# Protocol: as §1
# [5] = compound: O=C(O)C(F)(F)C(F)(F)C(F)(F)C(F)(F)C(F)(F)C(F)(F)C(F)(F)C(F)F [9-H-Perfluorononanoic acid]; details: 2200 nM; in DMSO
# Protocol: as §1
# [6] = compound: OCCC(F)(F)C(F)(F)C(F)(F)C(F)(F)C(F)(F)C(F)(F)C(F)(F)C(F)(F)F [8:2 Fluorotelomer alcohol]; details: 2200 nM; in DMSO
# Protocol: as §1
# [7] = compound: FC(F)(F)C(F)(F)C(F)(F)C(F)(F)C(F)(F)C(F)(F)C(F)(F)I [1-Iodopentadecafluoroheptane]; details: in DMSO
# Protocol: as §1
# [8] = compound: O=C(O)C(F)(F)OC(F)(F)C(F)(F)OC(F)(F)C(=O)O [Perfluoro-3,6-dioxaoctane-1,8-dioic acid]; details: 2200 nM; in DMSO
# Protocol: as §1
# [9] = compound: O=S(=O)(Cl)C(F)(F)C(F)(F)C(F)(F)C(F)(F)C(F)(F)C(F)(F)C(F)(F)C(F)(F)F [Perfluoro-1-octanesulfonyl chloride]; details: 2200 nM; in DMSO
# Protocol: as §1
# [10] = compound: OCC(F)(F)C(F)(F)C(F)(F)C(F)(F)C(F)(F)C(F)(F)C(F)(F)C(F)(F)C(F)(F)C(F)(F)C(F)(F)F [11:1 Fluorotelomer alcohol]; details: in DMSO
# Protocol: as §1
# [11] = compound: C=CC(=O)OCC(F)(F)C(F)(F)C(F)(F)C(F)(F)COC(=O)C=C [1H,1H,6H,6H-Perfluorohexane-1,6-diol diacrylate]; details: 2200 nM; in DMSO
# Protocol: as §1
# Perfluoropropanoic acid = compound: O=C(O)C(F)(F)C(F)(F)F [Perfluoropropanoic acid]; details: 2200 nM; in DMSO
# Protocol: as §1
# [12] = compound: FC(F)C(F)(F)COCC1CO1 [((2,2,3,3-Tetrafluoropropoxy)methyl)oxirane]; details: 2200 nM; in DMSO
# Protocol: as §1
# [13] = compound: FC(F)(F)C(F)(F)C(F)(F)C(F)(F)C(F)(F)C(F)(F)C(F)(F)CCI [1-Iodo-1H,1H,2H,2H-perfluorononane]; details: in DMSO
# Protocol: as §1
# [14] = compound: O=C(O)C=CC(F)(C(F)(F)F)C(F)(F)F [3-(Perfluoroisopropyl)-2-propenoic acid]; details: in DMSO
# Protocol: as §1
# Perfluorooctanamide = compound: NC(=O)C(F)(F)C(F)(F)C(F)(F)C(F)(F)C(F)(F)C(F)(F)C(F)(F)F [Perfluorooctanamide]; details: 2200 nM; in DMSO
# Protocol: as §1
Test System,level (log10) (Perfluoroundecanoic acid; 740 nM),level (log10) (Perfluoroundecanoic acid; 2200 nM),level (log10) [1],level (log10) [2],level (log10) [3],level (log10) [4],level (log10) (Perfluorobutanoic acid),level (log10) [5],level (log10) [6],level (log10) ([7]; 740 nM),level (log10) ([7]; 2200 nM),level (log10) ([7]; 6700 nM),level (log10) ([7]; 20000 nM),level (log10) [8],level (log10) [9],level (log10) ([10]; 370 nM),level (log10) ([10]; 1100 nM),level (log10) ([10]; 3300 nM),level (log10) ([10]; 10000 nM),level (log10) [11],level (log10) (Perfluoropropanoic acid),level (log10) [12],level (log10) ([13]; 740 nM),level (log10) ([13]; 2200 nM),level (log10) ([13]; 6700 nM),level (log10) ([13]; 20000 nM),level (log10) ([14]; 2200 nM),level (log10) ([14]; 6700 nM),level (log10) ([14]; 20000 nM),level (log10) ([14]; 60000 nM),level (log10) (Perfluorooctanamide)
SAg:Proliferation,0.0075 ± 0.088,-0.0245 ± 0.054,-0.0035 ± 0.046,0.035 ± 0.0071,0.032 ± 0.0099,-0.013 ± 0.076,0.0315 ± 0.028,0.0255 ± 0.11,0.003 ± 0.016,0.0265 ± 0.026,-0.026 ± 0.055,0.0055 ± 0.043,-0.0105 ± 0.026,-0.0135 ± 0.079,0.038 ± 0.073,-0.072 ± 0.09,-0.248 ± 0.083,-0.364 ± 0.13,-0.473 ± 0.35,-0.0225 ± 0.022,-0.048 ± 0.054,0.0235 ± 0.0092,0.0355 ± 0.066,0.018 ± 0.03,-0.0025 ± 0.063,-0.0055 ± 0.074,0.0055 ± 0.029,0.009 ± 0.016,-0.008 ± 0.037,0.008 ± 0.04,0 ± 0.055
BF4T:CXCL8/IL-8,0.047 ± 0.023,0.063 ± 0.0071,0.0545 ± 0.12,0.076 ± 0.027,0.014 ± 0.047,0.0205 ± 0.0064,0.009 ± 0.037,0.04 ± 0.025,-0.0095 ± 0.022,0.014 ± 0.093,0.049 ± 0.055,0.0515 ± 0.079,0.0425 ± 0.044,0.021 ± 0.035,-0.0245 ± 0.00071,-0.084 ± 0.12,0.001 ± 0.0057,0.0145 ± 0.037,0.028 ± 0.042,-0.003 ± 0.021,0.0365 ± 0.0035,0.0185 ± 0.0064,0.0115 ± 0.019,-0.004 ± 0.011,-0.0015 ± 0.018,0.011 ± 0.025,0.0135 ± 0.026,0.0055 ± 0.012,-0.0015 ± 0.0064,0.001 ± 0.021,0.0105 ± 0.022
KF3CT:CCL2/MCP-1,0.028 ± 0.014,-0.0005 ± 0.013,-0.0015 ± 0.0021,-0.003 ± 0.028,0.017 ± 0.021,-0.026 ± 0.027,0.0355 ± 0.056,0.0065 ± 0.0092,-0.003 ± 0.082,0.0035 ± 0.037,-0.004 ± 0.0071,0.0065 ± 0.0092,0.0015 ± 0.016,-0.024 ± 0.028,-0.028 ± 0.03,0.003 ± 0.02,0.0265 ± 0.013,0.0205 ± 0.00071,0.0305 ± 0.00071,-0.0515 ± 0.026,-0.01 ± 0.014,0.0195 ± 0.053,0.045 ± 0.05,-0.0025 ± 0.0092,0.01 ± 0.03,0.0795 ± 0.07,0.009,-0.012 ± 0.017,0 ± 0.027,0.0105 ± 0.053,-0.0035 ± 0.011
BE3C:CD87/uPAR,0.0185 ± 0.0064,0.0195 ± 0.016,0.0065 ± 0.026,0.0125 ± 0.033,-0.003 ± 0.04,0.021 ± 0.045,0.0105 ± 0.019,0.0325 ± 0.05,-0.0205 ± 0.025,0.0085 ± 0.00071,-0.007 ± 0.013,0.001 ± 0.034,0.008 ± 0.011,0.008 ± 0.045,0.057 ± 0.055,0.0095 ± 0.0092,-0.035 ± 0.0014,-0.0795 ± 0.012,-0.0385 ± 0.026,0.021 ± 0.028,0.006 ± 0.011,-0.0005 ± 0.035,0.015 ± 0.013,0.0055 ± 0.0035,0.0115 ± 0.018,0.016 ± 0.0014,0.023 ± 0.05,0.005 ± 0.0085,0.002 ± 0.045,0.052 ± 0.038,-0.0135 ± 0.018
HDF3CGF:SRB,0.0175 ± 0.013,0.0285 ± 0.0092,-0.0295 ± 0.021,-0.0045 ± 0.005,-0.001 ± 0.03,-0.0125 ± 0.042,0.025 ± 0.044,0.012 ± 0.0057,-0.033 ± 0.03,-0.005 ± 0.0028,-0.0125 ± 0.0035,0.013 ± 0.021,-0.002 ± 0.016,0.005 ± 0.045,-0.008 ± 0.028,-0.021 ± 0.025,-0.0055 ± 0.011,-0.0055 ± 0.016,0.0315 ± 0.036,-0.011 ± 0.0071,0.004 ± 0.014,-0.022 ± 0.0085,-0.019 ± 0.0071,-0.005 ± 0.017,0.016 ± 0.045,-0.052 ± 0.071,0.002 ± 0.055,-0.014 ± 0.055,0.0205 ± 0.011,-0.0055 ± 0.022,0.0165 ± 0.005
3C:CD142/Tissue Factor,-0.0375 ± 0.042,-0.036 ± 0.021,0.011 ± 0.014,-0.0025 ± 0.052,0.012 ± 0.037,0.0075 ± 0.046,0.0055 ± 0.039,0.042 ± 0.0028,0.0045 ± 0.1,-0.015 ± 0.052,-0.0035 ± 0.046,-0.0085 ± 0.015,-0.052 ± 0.076,0.022 ± 0.011,-0.0355 ± 0.036,0.019 ± 0.018,0.028 ± 0.024,0.074 ± 0.034,0.0865 ± 0.0092,-0.0345 ± 0.053,-0.0015 ± 0.035,0.004 ± 0.048,0.026 ± 0.014,0.0325 ± 0.016,0.01 ± 0.0071,0.0065 ± 0.0078,-0.0115 ± 0.052,-0.018 ± 0.065,-0.036 ± 0.048,0.003 ± 0.061,-0.0195 ± 0.0035
MyoF:MMP-1,-0.007 ± 0.018,-0.066 ± 0.061,0.045 ± 0.033,0.002 ± 0.027,0.0095 ± 0.066,0.026 ± 0.085,0.034 ± 0.033,-0.0265 ± 0.0035,0.0125 ± 0.091,0.0105 ± 0.022,-0.0025 ± 0.0021,0.145 ± 0.045,0.547 ± 0.018,0.022 ± 0.052,-0.0015 ± 0.076,0 ± 0.071,-0.027 ± 0.0042,-0.0445 ± 0.0021,0.004 ± 0.052,0.017 ± 0.034,-0.0155 ± 0.0035,0.0035 ± 0.026,-0.015 ± 0.0099,-0.0135 ± 0.00071,-0.012 ± 0.013,-0.0145 ± 0.025,0.0195 ± 0.066,-0.0205 ± 0.021,-0.031 ± 0.0014,0.006 ± 0.068,-0.013 ± 0.048
